Laboratory results from PubChem BioAssay AID248 (DTP/NCI, 2004).
The list shows only some results of the screen, not a fair sample: it is rich in T/C values a quarter to a half above the control, in often repeated tests (any T/C) and in doses without a T/C. Other doses and runs of a compound stand elsewhere. T/C gives the treated animals as a percentage of the vehicle group. Some doses have a count of surviving animals in place of a T/C: the source files T/C as zero there, which appears to mark a toxic dose or a test without result, not a measured value. Some survivor counts are full or nearly so, which does not show that the dose was tolerated: survival well below the control is almost never listed, so the zero probably covers shortened survival too. Counts of survivors are from the toxicity check (mostly the fifth day) where no day follows; animals may have died later. Schedules are NCI's codes, taken here to give the interval after Q, in days (D) or hours (H), and the number of doses after X. Some doses were run more than once; the values are given in rising order. Some schedules carry Z or #; the key to these is not given. Some structures stand for samples that the source files as different forms (salt, stereo form or complex); doses refer to the form tested. For survival time, the PubChem record calls one and a half times the control and up active, and a quarter to a half above the control has no call in these data; cut-offs in other NCI protocols can differ. Some T/C values are followed by the survivors on the day toxicity was checked, most often the fifth; where none is given, no animal had died by that day. Marks such as (2×) stand for listed records that agree.

Test system: L1210 leukemia ip in BDF1 mice, survival T/C
Assay: NCI In Vivo Anticancer Drug Screen. Data for tumor model L1210 Leukemia (intraperitoneal) in B6D2F1 (BDF1) mice
Details: T/C endpoint: mean survival time, higher T/C = longer survival
[1] = dose: 400.0 mg/kg/injection, schedule: Q01DX001 (ip), vehicle: saline
[2] = dose: 400.0 mg/kg/injection, schedule: Q01DX009 (ip), vehicle: saline with Tween-80
[3] = dose: 200.0 mg/kg/injection, schedule: Q04DX002 (ip), vehicle: saline with Tween-80
[4] = dose: 400.0 mg/kg/injection, schedule: Q04DX002 (ip), vehicle: saline with Tween-80
[5] = dose: 200.0 mg/kg/injection, schedule: Q01DX009 (ip), vehicle: saline with Tween-80
[6] = dose: 8.0 mg/kg/injection, schedule: Q01DX001 (ip), vehicle: saline
[7] = dose: 400.0 mg/kg/injection, schedule: Q04DX003 (ip), vehicle: Klucel (hydroxypropylcellulose) (HPC)

`Cn1c(=O)c2c(ncn2C)n(C)c1=O` was tested, and the survivor count [1] was 0 of 6, the survivor count [2] was 0 of 6 and the survivor count (dose: 800.0 mg/kg/injection, schedule: Q01DX001 (ip), vehicle: saline) was 1 of 6. The survivor count (dose: 1200.0 mg/kg/injection, schedule: Q01DX001 (ip), vehicle: saline) was 0 of 6 and the survivor count (dose: 1600.0 mg/kg/injection, schedule: Q01DX001 (ip), vehicle: saline) was 0 of 6.
With `CCN(CC)C(=Nc1ccc(NC(=O)c2ccc(C(=O)Nc3ccc(N=C(c4ccccc4)N(CC)CC)cc3)cc2)cc1)c1ccccc1` the survivor count (dose: 240.0 mg/kg/injection, schedule: Q01DX Z (ip), vehicle: water) was 3 of 6 and the survivor count (dose: 480.0 mg/kg/injection, schedule: Q01DX Z (ip), vehicle: water) was 1 of 6.
For `C=CCCCCC/C=C/CCCCCC`, the survivor count [2] was 0 of 6.
For `CC(=O)c1sc2sc(C(C)=O)c(NC(=S)Nc3cccc(C(F)(F)F)c3)c2c1NC(=S)Nc1cccc(C(F)(F)F)c1`, the T/C (dose: 100.0 mg/kg/injection, schedule: Q04DX002 (ip), vehicle: saline with Tween-80) was 86, 88, 91, 98 % of control, the T/C [3] was 92 and 94 % of control and the survivor count [3] was 3 of 3 and 6 of 6. For the same compound, the T/C [4] was 91, 94, 95 % of control, the survivor count [4] was 6 of 6 and the survivor count (dose: 400.0 mg/kg/injection, schedule: Q04DX003 (ip), vehicle: saline with Tween-80) was 3 of 6.
In the case of `CCC(C)C(C1=C(O)c2ccccc2C(=O)C1=O)C1=C(O)c2ccccc2C(=O)C1=O` (stereo unspecified), the survivor count (dose: 300.0 mg/kg/injection, schedule: Q01DX001 (ip), vehicle: carboxymethylcellulose (CMC)) is reported as 2 of 6.
`S=c1c2[nH]cnc2ncn1C1CCCCC1` was tested, and the survivor count (dose: 15.0 mg/kg/injection, schedule: Q01DX009 (ip), vehicle: saline with Tween-80) was 1 of 6, the survivor count (dose: 22.0 mg/kg/injection, schedule: Q01DX009 (ip), vehicle: saline with Tween-80) was 2 of 6 and the survivor count (dose: 33.5 mg/kg/injection, schedule: Q01DX009 (ip), vehicle: saline with Tween-80) was 0 of 6. For the same compound, the survivor count (dose: 50.0 mg/kg/injection, schedule: Q01DX009 (ip), vehicle: saline with Tween-80) was 0 of 6.
For `O=Cc1nccc2c1[nH]c1ccccc12`, the survivor count [5] was 4 of 6 and the survivor count [2] was 3 of 6.
For `O=c1cc(Oc2ccc([N+](=O)[O-])cc2)[nH]c(=O)[nH]1`, the survivor count (dose: 400.0 mg/kg/injection, schedule: Q01DX001 (ip), vehicle: Klucel (hydroxypropylcellulose) (HPC)) was 3 of 6.
`CC[C@@]1(O)C(=O)OCc2c1cc1n(c2=O)Cc2cc3cc(O)ccc3nc2-1` was tested, and the T/C (dose: 0.25 mg/kg/injection, schedule: Q01DX009 (ip), vehicle: saline) was 142 % of control, the T/C (dose: 0.5 mg/kg/injection, schedule: Q01DX009 (ip), vehicle: saline) was 132 % of control and the T/C (dose: 0.51 mg/kg/injection, schedule: Q01DX015 (ip), vehicle: saline) was 131 % of control. For the same compound, the survivor count (dose: 1.75 mg/kg/injection, schedule: Q01DX015 (ip), vehicle: saline) was 5 of 6, the survivor count (dose: 2.6 mg/kg/injection, schedule: Q01DX015 (ip), vehicle: saline) was 6 of 6 and the T/C (dose: 3.5 mg/kg/injection, schedule: Q01DX001 (ip), vehicle: saline) was 136 % of control. For the same compound, the survivor count (dose: 3.9 mg/kg/injection, schedule: Q01DX015 (ip), vehicle: saline) was 6 of 6, the T/C (dose: 4.0 mg/kg/injection, schedule: Q01DX001 (ip), vehicle: saline) was 144 % of control and the T/C (dose: 4.0 mg/kg/injection, schedule: Q01DX009 (ip), vehicle: saline) was 125 % of control. The T/C (dose: 4.6 mg/kg/injection, schedule: Q01DX009 (oral), vehicle: saline, evaluated on day 30) was 130 % of control, the T/C (dose: 4.6 mg/kg/injection, schedule: Q01DX009 (oral), vehicle: saline, run until all animals had died) was 125 % of control and the survivor count (dose: 5.3 mg/kg/injection, schedule: Q01DX001 (ip), vehicle: saline) was 5 of 6. For the same compound, the survivor count (dose: 5.8 mg/kg/injection, schedule: Q01DX015 (ip), vehicle: saline) was 2 of 6, the T/C (dose: 7.0 mg/kg/injection, schedule: Q01DX009 (oral), vehicle: saline) was 139 % of control [5 of 6 alive] and the T/C [6] was 144 % of control. The survivor count [6] was 4 of 6, the survivor count (dose: 12.0 mg/kg/injection, schedule: Q01DX001 (ip), vehicle: saline) was 1 of 6 and the T/C (dose: 16.0 mg/kg/injection, schedule: Q01DX001 (ip), vehicle: saline) was 139 % of control. For the same compound, the survivor count (dose: 22.0 mg/kg/injection, schedule: Q01DX009 (oral), vehicle: saline) was 5 of 6, the survivor count (dose: 32.0 mg/kg/injection, schedule: Q01DX001 (ip), vehicle: saline) was 1 of 4 and the T/C (dose: 44.0 micrograms/kg/injection, schedule: Q01DX015 (ip), vehicle: saline) was 138 % of control. For the same compound, the T/C (dose: 66.0 micrograms/kg/injection, schedule: Q01DX015 (ip), vehicle: saline) was 125 % of control and the T/C (dose: 150.0 micrograms/kg/injection, schedule: Q01DX015 (ip), vehicle: saline) was 133 % of control.
In the case of `NC1=NCCS1`, the survivor count (dose: 200.0 mg/kg/injection, schedule: Q04DX002 (ip), vehicle: saline) is reported as 0 of 3 and the survivor count (dose: 400.0 mg/kg/injection, schedule: Q04DX002 (ip), vehicle: saline) is reported as 0 of 3.
With `O=C(Nc1ccc(S(=O)(=O)F)cc1)Oc1ccc([N+](=O)[O-])cc1` the T/C (dose: 100.0 mg/kg/injection, schedule: Q01DX009 (ip), vehicle: saline with Tween-80) was 89 (2×), 91, 93 % of control [4 of 6 alive], the survivor count [5] was 3 of 6 and the survivor count [2] was 0 of 3 and 5 of 6.
In the case of `O=c1cc(/C=N/Nc2ccc([N+](=O)[O-])cc2[N+](=O)[O-])c2cccc3c2n1CCC3`, the survivor count [5] is reported as 6 of 6.
In the case of `COC(=O)c1ccc(C)cn1`, the survivor count (dose: 200.0 mg/kg/injection, schedule: Q01DX001 (ip), vehicle: saline) is reported as 0 of 4 and the survivor count [1] is reported as 0 of 4.
`CCCCCCCCCCCCCCCCC1=NCCN1` was tested, and the survivor count (dose: 10.0 mg/kg/injection, schedule: Q04DX003 (ip), vehicle: saline) was 6 of 6, the survivor count (dose: 75.0 mg/kg/injection, schedule: Q01DX001 (ip), vehicle: acetone) was 2 of 6 and the survivor count (dose: 150.0 mg/kg/injection, schedule: Q01DX001 (ip), vehicle: acetone) was 0 of 6. The survivor count (dose: 300.0 mg/kg/injection, schedule: Q01DX001 (ip), vehicle: acetone) was 0 of 6.
For `O=NN(CCCl)C(=O)Nc1ccccc1NC(=O)N(CCCl)N=O`, the T/C (dose: 6.0 mg/kg/injection, schedule: Q01DX001 (ip), vehicle: carboxymethylcellulose (CMC)) was 130 % of control, the T/C (dose: 8.0 mg/kg/injection, schedule: Q01DX001 (ip), vehicle: carboxymethylcellulose (CMC)) was 130 % of control and the T/C (dose: 10.0 mg/kg/injection, schedule: Q01DX001 (ip), vehicle: carboxymethylcellulose (CMC)) was 139 % of control. For the same compound, the T/C (dose: 12.5 mg/kg/injection, schedule: Q01DX001 (ip), vehicle: carboxymethylcellulose (CMC)) was 130 % of control and the T/C (dose: 15.0 mg/kg/injection, schedule: Q01DX001 (ip), vehicle: carboxymethylcellulose (CMC)) was 137 % of control.
With `CCOc1ccc(O)cc1` the survivor count (dose: 400.0 mg/kg/injection, schedule: Q04DX002 (ip), vehicle: saline + alcohol) was 1 of 3.
In the case of `Cc1cc(Cl)ccc1NC(=O)c1ccc([N+](=O)[O-])cc1`, the survivor count [2] is reported as 6 of 6.
`S=C(S)Nc1cccc2ccccc12` was tested, and the survivor count (dose: 100.0 mg/kg/injection, schedule: Q04DX003 (ip), vehicle: Klucel (hydroxypropylcellulose) (HPC)) was 4 of 6, the survivor count (dose: 200.0 mg/kg/injection, schedule: Q04DX003 (ip), vehicle: Klucel (hydroxypropylcellulose) (HPC)) was 2 of 6 and the survivor count [7] was 4 of 6.
With `Cc1nc(-c2ccc(N=Cc3ccc(N(CCOS(C)(=O)=O)CCOS(C)(=O)=O)cc3)cc2)cs1` the T/C (dose: 33.0 mg/kg/injection, schedule: Q04DX003 (ip), vehicle: Klucel (hydroxypropylcellulose) (HPC)) was 142 % of control, the T/C (dose: 50.0 mg/kg/injection, schedule: Q04DX003 (ip), vehicle: Klucel (hydroxypropylcellulose) (HPC)) was 140 and 148 % of control and the T/C (dose: 75.0 mg/kg/injection, schedule: Q04DX003 (ip), vehicle: Klucel (hydroxypropylcellulose) (HPC)) was 137 % of control. The survivor count [7] was 1 of 6.
